Results are given in words; binding and its absence hold for the method and conditions named. For some assays here: Binding seen in cells or lysates may run through a third protein. Some entries that bind do so weakly or less than the wild type.
Experiments:
[1] = molecular target: endogenous mouse PQBP1 (mouse (endogenous in primary microglia and in R6/2 cerebral cortex)) (UniProt Q91VJ5); assay: co-IP; lysate (1% NP40) of primary C57BL/6 microglia cultured 3 days with 25 nM non-aggregated TAMRA-labeled Tau 410; precipitated with anti-PQBP1, anti-tau or human IgG and Protein G Sepharose; western blot and TAMRA fluorescence of the precipitate
[2] = molecular target: Aβ40 (UniProt P05067); assay: SPR; Aβ40 and α-synuclein fused to an N-terminal His-tag and a biotinylation-tag; BIAcore J, 25 °C; 10 mM Tris-HCl pH 8.5, 150 mM NaCl, 3 mM EDTA, 0.005% Tween-20; who was immobilised is not told for these two; both purified

By UniProt entry, the sequences of proteins in these tests, tags left out. Where a name states a change or a piece, a line headed by the entry shows the natural chain unless it says otherwise. Chains listed by the source or under a name are the forms on record and can include a tag or linker. Residues count along the entry.
UniProt Q91VJ5: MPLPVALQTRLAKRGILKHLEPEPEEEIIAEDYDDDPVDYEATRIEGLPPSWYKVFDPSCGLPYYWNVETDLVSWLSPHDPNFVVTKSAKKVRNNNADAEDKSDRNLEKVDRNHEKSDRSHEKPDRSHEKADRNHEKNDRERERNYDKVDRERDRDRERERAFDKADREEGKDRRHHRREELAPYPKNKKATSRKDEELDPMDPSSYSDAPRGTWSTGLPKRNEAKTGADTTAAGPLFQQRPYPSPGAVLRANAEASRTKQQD
UniProt P05067, residues 672-711: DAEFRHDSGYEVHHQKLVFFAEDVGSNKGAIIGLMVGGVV
TAMRA-labeled Tau 410 (P10636-5, form named): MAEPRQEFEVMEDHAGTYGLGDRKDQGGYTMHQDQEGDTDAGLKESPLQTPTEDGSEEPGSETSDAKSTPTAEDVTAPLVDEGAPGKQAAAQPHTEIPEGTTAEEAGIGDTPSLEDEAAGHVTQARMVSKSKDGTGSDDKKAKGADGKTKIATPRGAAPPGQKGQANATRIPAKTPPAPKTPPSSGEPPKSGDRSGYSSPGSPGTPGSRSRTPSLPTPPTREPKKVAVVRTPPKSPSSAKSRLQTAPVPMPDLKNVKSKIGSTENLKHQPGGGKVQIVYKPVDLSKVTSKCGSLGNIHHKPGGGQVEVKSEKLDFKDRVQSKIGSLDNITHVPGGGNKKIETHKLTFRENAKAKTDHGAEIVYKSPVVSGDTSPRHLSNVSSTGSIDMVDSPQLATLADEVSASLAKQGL
UniProt O60828: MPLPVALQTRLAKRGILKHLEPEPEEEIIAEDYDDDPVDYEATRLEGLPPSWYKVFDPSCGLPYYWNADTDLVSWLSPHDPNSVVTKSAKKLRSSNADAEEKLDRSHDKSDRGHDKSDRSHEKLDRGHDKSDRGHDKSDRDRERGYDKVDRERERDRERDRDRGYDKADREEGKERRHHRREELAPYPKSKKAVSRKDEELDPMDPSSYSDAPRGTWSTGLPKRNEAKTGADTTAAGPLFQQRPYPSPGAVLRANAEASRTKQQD

binding [1] | binding [2] | Substance
binds |  | TAMRA-labeled Tau 410 (from UniProt P10636-5 1-410)
 | binds | human PQBP1 full-length form (PQBP1-FL) (from UniProt O60828 1-265)
